Measured values reported in paper PMC9332457.

Target: T1, MoAtg18, two-hybrid fusion of the pairwise assays (Magnaporthe oryzae) (UniProt Q524W4)
T1 sequence: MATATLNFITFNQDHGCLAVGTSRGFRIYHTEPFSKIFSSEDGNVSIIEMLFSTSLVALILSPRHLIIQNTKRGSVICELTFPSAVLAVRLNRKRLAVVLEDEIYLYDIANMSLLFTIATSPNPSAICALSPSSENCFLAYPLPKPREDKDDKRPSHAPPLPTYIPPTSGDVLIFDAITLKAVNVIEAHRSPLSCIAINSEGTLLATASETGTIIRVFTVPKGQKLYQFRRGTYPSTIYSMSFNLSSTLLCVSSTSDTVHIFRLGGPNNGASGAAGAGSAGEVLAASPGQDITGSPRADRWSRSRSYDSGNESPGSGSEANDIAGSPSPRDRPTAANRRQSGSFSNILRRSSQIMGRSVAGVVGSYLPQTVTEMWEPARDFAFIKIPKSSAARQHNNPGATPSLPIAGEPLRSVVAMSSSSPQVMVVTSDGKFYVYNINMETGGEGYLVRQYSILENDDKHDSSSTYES
Assay: two-hybrid

In the case of “MoKns1–N3 (332–670 aa), two-hybrid fusion (from UniProt G4N5S6) (domain or fragment)”, the binding is reported as “binds”.

These are yes or no findings as the source states them, for the method shown. Binding can be weak; no strength is given. Where a sequence is shown, tags or fusion partners need not be part of it.
